For two molecules, binding results are on record in PMC12661054, “The CIP2A-TOPBP1 axis facilitates mitotic DNA repair via MiDAS and MMEJ” (Nature Communications, 2025).

No constants are given. Whether binding was seen depends on the method and setting. In cells and extracts the contact can be indirect. Binding calls can cover weak binding; strength is not graded here.

Test [1] has as its target eGFP-TOPBP1 BRCT 0-3 (C-terminal truncation mutant) (human). Nature of the test: co-IP; GFP-Trap agarose from benzonase-treated whole-cell lysates of transfected HEK293TN cells (nocodazole 100 ng/ml 18 h; in some panels asynchronous cells or 7 µM RO-3306 for 30 min); 200 mM NaCl, 0.2% Igepal, pH 7.5, 4 °C; western blot. For orientation: In western blotting, separated proteins are transferred to a membrane and probed.

Test [2] addresses eGFP-TOPBP1 BRCT 0-2 (C-terminal truncation mutant) (human). Described as above.

B1: MUS81 (endogenous) (protein, UniProt Q96NY9 1-551)
chain: MAAPVRLGRKRPLPACPNPLFVRWLTEWRDEATRSRRRTRFVFQKALRSLRRYPLPLRSGKEAKILQHFGDGLCRMLDERLQRHRTSGGDHAPDSPSGENSPAPQGRLAEVQDSSMPVPAQPKAGGSGSYWPARHSGARVILLVLYREHLNPNGHHFLTKEELLQRCAQKSPRVAPGSARPWPALRSLLHRNLVLRTHQPARYSLTPEGLELAQKLAESEGLSLLNVGIGPKEPPGEETAVPGAASAELASEAGVQQQPLELRPGEYRVLLCVDIGETRGGGHRPELLRELQRLHVTHTVRKLHVGDFVWVAQETNPRDPANPGELVLDHIVERKRLDDLCSSIIDGRFREQKFRLKRCGLERRVYLVEEHGSVHNLSLPESTLLQAVTNTQVIDGFFVKRTADIKESAAYLALLTRGLQRLYQGHTLRSRPWGTPGNPESGAMTSPNPLCSLLTFSDFNAGAIKNKAQSVREVFARQLMQVRGVSGEKAAALVDRYSTPASLLAAYDACATPKEQETLLSTIKCGRLQRNLGPALSRTLSQLYCSYGPLT
As to B1, the binding entry in test [1] and in test [2] was “binds” each time.

B2: ERCC1 (endogenous) (protein, UniProt P07992 1-297)
chain: MDPGKDKEGVPQPSGPPARKKFVIPLDEDEVPPGVAKPLFRSTQSLPTVDTSAQAAPQTYAEYAISQPLEGAGATCPTGSEPLAGETPNQALKPGAKSNSIIVSPRQRGNPVLKFVRNVPWEFGDVIPDYVLGQSTCALFLSLRYHNLHPDYIHGRLQSLGKNFALRVLLVQVDVKDPQQALKELAKMCILADCTLILAWSPEEAGRYLETYKAYEQKPADLLMEKLEQDFVSRVTECLTTVKSVNKTDSQTLLTTFGSLEQLIAASREDLALCPGLGPQKARRLFDVLHEPFLKVP
As for B2, the binding result in test [1] and in test [2] was “binds” each time.
